Here are results for one molecule from article PMC6851183, “Computational design and characterization of nanobody-derived peptides that stabilize the active conformation of the β2-adrenergic receptor (β2-AR)” (Scientific Reports, 2019).

The experiment addresses C-terminal Renilla luciferase 8 (RLuc8) tagged HAβ2-AR (β2-AR/RLuc8) (human) (UniProt P07550). Nature of the experiment: circular dichroism; lysate of β2-AR/Rluc8-transfected HEK-293 cells preincubated with isoproterenol (1 µM in the legend, 10 µM in the methods), titrated with P3 at 5, 10, 20, 30 µM; PBS pH 7.2, 0.1% DMSO, 25 °C; only the binder purified. On the technique in general: CD spectra are sensitive to the conformation of chiral molecules.

Results are given in words; binding and its absence hold for the method and conditions named. Some entries that bind do so weakly or less than the wild type.

For EDTAVYYCNANWDLLSD [P3, nanobody-derived peptide (NDP) of Nb71], the binding entry is recorded as “binds”.
